No constants are given. Whether binding was seen depends on the method and setting. Some entries that bind do so weakly or less than the wild type. One block for each binder: values may come before it.
Experiments:
[1] = target: cynomolgus TIGIT on primary CD8+ T cells (Macaca fascicularis); assay: flow cytometry on stimulated cynomolgus PBMCs, % TIGIT-stained cells gated on live CD69+CD8+ T cells, detection with anti-human Ig (Fc gamma specific)-PE
[2] = target: human TIGIT on cells (Jurkat-hTIGIT, human primary T cells) (human) (UniProt Q495A1); assay: flow cytometry on Jurkat-hTIGIT cells, detection with anti-human Ig (Fc gamma specific)-PE
[3] = target: human TIGIT on cells (Jurkat-hTIGIT, human primary T cells) (human) (UniProt Q495A1); assay: flow cytometry competition on Jurkat-hTIGIT cells; cells incubated with the antibody, washed, then CD155-His at 15 ug/ml, bound CD155-His detected with anti-His-PE; blocked ligand: CD155-His
[4] = target: human TIGIT on cells (Jurkat-hTIGIT, human primary T cells) (human) (UniProt Q495A1); assay: flow cytometry on PBMCs of cancer patients, MFI on gated live TIGIT+CD8+ cells, detection with anti-human Ig (Fc gamma specific)-PE
[5] = target: human TIGIT on cells (Jurkat-hTIGIT, human primary T cells) (human) (UniProt Q495A1); assay: flow cytometry on Jurkat-hTIGIT
[6] = target: human TIGIT on cells (Jurkat-hTIGIT, human primary T cells) (human) (UniProt Q495A1); assay: flow cytometry on PBMCs of healthy human donors, MFI on gated living TIGIT+CD8+ T cells, detection with anti-human Ig (Fc gamma specific)-PE

Amino acid sequences for entries named in this document (tags omitted). Residues count along the entry.
UniProt Q495A1, residues 22-244: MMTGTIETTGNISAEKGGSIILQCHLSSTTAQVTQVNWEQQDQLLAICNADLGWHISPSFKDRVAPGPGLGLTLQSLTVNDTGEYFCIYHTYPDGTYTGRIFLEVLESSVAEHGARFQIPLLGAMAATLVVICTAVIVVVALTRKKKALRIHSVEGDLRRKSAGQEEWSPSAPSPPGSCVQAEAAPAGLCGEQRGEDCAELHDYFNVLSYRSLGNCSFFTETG

- binding [1]: binds
B1: anti-TIGIT antibody clone 29520 (antibody, V domains shown)
VH: QVQLVESGGGLVQPGRSLRLSCAASGFTFRDYAMHWVRQAPGKGLEWVSGITWNSGLIGYADSVKGRFTISRDNAKNSLYLQMNSLRAEDTALYYCAKPVPRLRGLDVWGQGTMVTVSS
VL: DIQLTQSPSSVSASVGDRVTITCRASQGISSWLAWYQQKPGKAPKLLIYGASSLQSGVPSRFSGSGSGTDFTLTISSLQPEDFATYYCQQAFYLPWTFGGGTKVEIK

- binding [1]: binds
B2: anti-TIGIT antibody clone 29527 (antibody, V domains shown)
VH: QVQLVESGGGVVQPGRSLRLSCAASGFTFSSSYMHWVRQAPGKGLEWVAVIGADGSNKYYADSVEGRFTISRDNSKNTLYLQMNSLRAEDTALYYCAKPVPRRRGLDVWGQGTMVTVSS
VL: B1 VL

- binding [2]: binds
- binding [3]: binds
- binding [4]: binds
- binding [5]: binds
- binding [6]: binds
B3: comparative anti-TIGIT antibody 313M32 (antibody, human IgG1, V domains shown)
VH: QVQLQESGPGLVKPSETLSLTCAVSGYSITSDYAWNWIRQPPGKGLEWIGYISYSGSTSYNPSLRSRVTISRDTSKNQFFLKLSSVTAADTAVYYCARRQVGLGFAYWGQGTLVTVSS
VL: DIQMTQSPSSLSASVGDRVTITCKASQDVSTAVAWYQQKPGKAPKLLIYSASYRYTGVPSRFSGSGSGTDFTFTISSLQPEDIATYYCQQHYSTPWTFG
